In test [1] the target is T1, endogenous telencephalin (TLN) from mouse brain extracts (mouse) (UniProt Q60625).
T1 sequence (looked up): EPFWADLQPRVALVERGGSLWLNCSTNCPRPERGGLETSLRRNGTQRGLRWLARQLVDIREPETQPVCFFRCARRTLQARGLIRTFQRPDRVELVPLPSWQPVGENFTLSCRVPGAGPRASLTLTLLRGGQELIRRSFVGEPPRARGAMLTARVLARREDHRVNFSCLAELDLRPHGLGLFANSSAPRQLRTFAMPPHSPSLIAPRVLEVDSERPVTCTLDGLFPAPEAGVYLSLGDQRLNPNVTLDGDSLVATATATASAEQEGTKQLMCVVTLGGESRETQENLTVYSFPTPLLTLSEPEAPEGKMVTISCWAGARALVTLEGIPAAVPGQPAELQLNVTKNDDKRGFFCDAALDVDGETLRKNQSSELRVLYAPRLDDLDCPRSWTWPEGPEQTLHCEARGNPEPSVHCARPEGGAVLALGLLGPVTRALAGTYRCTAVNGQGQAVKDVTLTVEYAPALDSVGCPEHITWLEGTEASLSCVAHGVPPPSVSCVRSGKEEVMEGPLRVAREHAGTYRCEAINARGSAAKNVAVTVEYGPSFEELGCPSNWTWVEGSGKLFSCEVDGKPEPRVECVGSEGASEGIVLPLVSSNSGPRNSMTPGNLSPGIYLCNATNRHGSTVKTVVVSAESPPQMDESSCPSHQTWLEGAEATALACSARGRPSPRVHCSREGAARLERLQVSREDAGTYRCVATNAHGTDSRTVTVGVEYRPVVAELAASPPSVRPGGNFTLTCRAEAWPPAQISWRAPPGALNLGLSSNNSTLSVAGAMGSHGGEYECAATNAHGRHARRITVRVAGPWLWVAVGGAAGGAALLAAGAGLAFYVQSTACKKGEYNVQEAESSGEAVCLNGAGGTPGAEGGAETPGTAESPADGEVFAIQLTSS
In words: GST pull-down of endogenous TLN from Triton X-100 brain extracts.

In test [2] the target is T1, endogenous telencephalin (TLN) from mouse brain extracts (mouse). In words: GST pull-down from Triton-X100 brain extracts, western blot with B36.1.

These are yes or no findings as the source states them, for the method shown. Binding seen in cells or lysates may run through a third protein. Some entries that bind do so weakly or less than the wild type.

With “GST-PS1 N-terminal fragment with the first but without the second transmembrane region (name not printed) (from UniProt P08515 1-218; P49768 1-132)”, the binding result in test [1] and in test [2] was “binds” in each case.

As to “GST-PS1/1-163N (from UniProt P08515 1-218; P49768 1-163)”, the binding result in test [1] and in test [2] was “binds” throughout.

The values are drawn from patent US20040115734A1.
